According to article PMC3426539:
Results are given in words; binding and its absence hold for the method and conditions named. Binding seen in cells or lysates may run through a third protein. Some binding calls cover weakened binding; strength is not graded here.

Protein sequences, listed by entry. Tags and fused reporters are not part of them.
UniProt P27986: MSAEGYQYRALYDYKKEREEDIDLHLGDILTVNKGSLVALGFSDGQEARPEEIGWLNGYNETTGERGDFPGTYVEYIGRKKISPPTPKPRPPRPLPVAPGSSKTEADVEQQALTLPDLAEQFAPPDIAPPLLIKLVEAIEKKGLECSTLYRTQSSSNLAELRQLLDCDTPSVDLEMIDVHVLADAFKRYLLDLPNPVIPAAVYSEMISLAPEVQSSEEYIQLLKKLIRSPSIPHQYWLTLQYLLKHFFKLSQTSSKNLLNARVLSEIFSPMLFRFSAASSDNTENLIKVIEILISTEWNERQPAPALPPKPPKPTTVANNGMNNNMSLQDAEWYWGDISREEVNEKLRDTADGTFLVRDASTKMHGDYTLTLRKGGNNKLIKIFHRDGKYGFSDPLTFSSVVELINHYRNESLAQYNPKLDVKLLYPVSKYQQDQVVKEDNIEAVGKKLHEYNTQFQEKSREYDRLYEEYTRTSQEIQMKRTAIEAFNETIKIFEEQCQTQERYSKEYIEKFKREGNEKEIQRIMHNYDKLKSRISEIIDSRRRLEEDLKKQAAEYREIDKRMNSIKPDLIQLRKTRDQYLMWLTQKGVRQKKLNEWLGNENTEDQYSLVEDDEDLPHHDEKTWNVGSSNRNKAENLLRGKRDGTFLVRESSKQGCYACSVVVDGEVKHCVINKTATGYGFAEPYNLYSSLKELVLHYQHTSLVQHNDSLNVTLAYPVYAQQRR

Molecular target: p85α subunit of phosphatidylinositol 3-kinase (PI3K) (human (endogenous in WRO and A549)) (UniProt P27986)
Assay: co-IP; lysates of WRO thyroid cancer cells and A549 lung cancer cells; which protein was precipitated is not told; protocol referred to earlier papers

binding: binds
B1: XB130 (protein, UniProt Q8N4X5 1-818)
chain: MERYKALEQLLTELDDFLKILDQENLSSTALVKKSCLAELLRLYTKSSSSDEEYIYMNKVTINKQQNAESQGKAPEEQGLLPNGEPSQHSSAPQKSLPDLPPPKMIPERKQLAIPKTESPEGYYEEAEPYDTSLNEDGEAVSSSYESYDEEDGSKGKSAPYQWPSPEAGIELMRDARICAFLWRKKWLGQWAKQLCVIKDNRLLCYKSSKDHSPQLDVNLLGSSVIHKEKQVRKKEHKLKITPMNADVIVLGLQSKDQAEQWLRVIQEVSGLPSEGASEGNQYTPDAQRFNCQKPDIAEKYLSASEYGSSVDGHPEVPETKDVKKKCSAGLKLSNLMNLGRKKSTSLEPVERSLETSSYLNVLVNSQWKSRWCSVRDNHLHFYQDRNRSKVAQQPLSLVGCEVVPDPSPDHLYSFRILHKGEELAKLEAKSSEEMGHWLGLLLSESGSKTDPEEFTYDYVDADRVSCIVSAAKNSLLLMQRKFSEPNTYIDGLPSQDRQEELYDDVDLSELTAAVEPTEEATPVADDPNERESDRVYLDLTPVKSFLHGPSSAQAQASSPTLSCLDNATEALPADSGPGPTPDEPCIKCPENLGEQQLESLEPEDPSLRITTVKIQTEQQRISFPPSCPDAVVATPPGASPPVKDRLRVTSAEIKLGKNRTEAEVKRYTEEKERLEKKKEEIRGHLAQLRKEKRELKETLLKCTDKEVLASLEQKLKEIDEECRGEESRRVDLELSIMEVKDNLKKAEAGPVTLGTTVDTTHLENVSPRPKAVTPASAPDCTPVNSATTLKNRPLSVVVTGKGTVLQKAKEWEKKGAS
